Data on one molecule can be found in PMC5833388.

Chains of the proteins cited; added tags and fusions are not shown.
UniProt P23804: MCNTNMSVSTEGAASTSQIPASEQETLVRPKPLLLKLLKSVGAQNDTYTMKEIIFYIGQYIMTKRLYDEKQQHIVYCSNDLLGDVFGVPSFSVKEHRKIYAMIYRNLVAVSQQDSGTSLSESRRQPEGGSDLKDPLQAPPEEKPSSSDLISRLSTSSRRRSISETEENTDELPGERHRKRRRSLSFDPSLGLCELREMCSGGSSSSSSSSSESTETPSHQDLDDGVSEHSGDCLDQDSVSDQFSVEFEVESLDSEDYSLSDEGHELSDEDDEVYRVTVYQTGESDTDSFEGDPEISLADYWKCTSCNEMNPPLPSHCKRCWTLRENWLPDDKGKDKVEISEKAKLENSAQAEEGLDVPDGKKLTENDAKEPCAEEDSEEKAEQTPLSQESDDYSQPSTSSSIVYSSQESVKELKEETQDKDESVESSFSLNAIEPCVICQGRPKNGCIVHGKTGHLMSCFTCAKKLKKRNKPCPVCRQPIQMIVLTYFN

These are yes or no findings as the source states them, for the method shown. Binding seen in cells or lysates may run through a third protein. Some binding calls cover weakened binding; strength is not graded here.

The test concerns the target Mdm2 (mouse (endogenous in MEFs)) (UniProt P23804). The test can be described thus: co-IP; endogenous proteins in lysates of Rps27l+/+;Trp53+/- and Rps27l-/-;Trp53+/- MEFs, untreated or irradiated at 5 Gy and harvested at indicated time points; immunoprecipitation with Mdm2 or Nbs1 antibody, then immunoblot.

B1: Nbs1 (protein, UniProt Q9R207 1-751)
chain: MWKLLPAAGAAPGEPYRLLAGVEYVVGRKNCGILIENDQSISRNHAVLTVNFPVTSLSQTDEIPTLTIKDNSKYGTFVNEEKMQTGLSCTLKTGDRVTFGVFESKFRVEYEPLVVCSSCLDVSGKTVLNQAILQLGGLTANNWTEECTHLVMSAVKVTIKTICALICGRPIIKPEYFSEFLKAVESKKQPPDIESFYPPIDEPAIGSKSVDLSGRHERKQIFKGKTFVFLNAKQHKKLSSAVAFGGGEARLMAEDDEEEQSFFSAPGTCVVDVGITNTQLIISHSQKKWIHLIMDTLQRNGLRPIPEAEIGLAVIFMTTENYCNPQGQPCTELKTTTPGPSLSQVLSANGKIIPSAPVNMTTYVADTESEPADTCMPLSERPEEVKIPGLEQSSRKLSQETFNIKEAPKPSSKANNVASDTLVRGKTPSYQLSPMKFPVANKNKDWTSQQQQNSIKNYFQPCTRKRERDEDNPELSSCKSSRMELSCSLLEQTQPAGPSLWKSKEHQSQNATLDREADTSSVGGMDIELNRKSPDRKPLPTETLRPRKRKDVDLATEEEVLEELLRSTKPELAVQVKVEKQEADDTIRKKPRMDAERNRPLNGGSEPESNSALQEDEREKKDELQTESWSTKHEIANSDGLQDSSEELPRKLLLTEFRSLVVSNHNSTSRNLCVNECGPLKNFKKFKKATFPGAGKLPHIIGGSDLVGHHARKNTELEEWLKQEMEVQKQQAKEESLADDLFRYNPNVKRR
Turning to B1, the binding entry is listed as “binds”.
